Source: patent US20060257867
The exact form of at least one protein or probe is not confirmed. Protein sequences can lack the tags named with them.

By UniProt entry, the sequences of proteins in these tests, tags left out. Where a name states a change or a piece, a line headed by the entry shows the natural chain unless it says otherwise.
UniProt Q9QYH7: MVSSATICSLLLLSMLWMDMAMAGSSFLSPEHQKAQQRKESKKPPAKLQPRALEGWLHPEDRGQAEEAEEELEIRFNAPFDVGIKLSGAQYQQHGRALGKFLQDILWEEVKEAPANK

Target: T1, ghrelin (L-enantiomer, rat) (Rattus norvegicus) (UniProt Q9QYH7)
T1 sequence: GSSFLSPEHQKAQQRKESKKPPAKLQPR
Test: SPR
Conditions: L-RNA; synthetic protein; synthetic backbone; mirror-image nucleic acid; variant of B11

“CGUGUGAGGCAAUAAAACUUAAGUCCGAAGGUAACCAAUCCUACACG [B11trc Spiegelmer / NOX-SOT-C (B11)]”: binds.
